These are yes or no findings as the source states them, for the method shown. Some results given as binding are weak or reduced against the parent protein; the word gives no strength. Tags and fused reporters may be left off the sequences shown.
Columns and labels:
mouse SIRPα (mouse) [1] = molecular target: T1, mouse SIRPα (mouse) (UniProt P97797); test: Octet, exosomes on mouse SIRPα (legend of FIG. 12)
T1 sequence (looked up): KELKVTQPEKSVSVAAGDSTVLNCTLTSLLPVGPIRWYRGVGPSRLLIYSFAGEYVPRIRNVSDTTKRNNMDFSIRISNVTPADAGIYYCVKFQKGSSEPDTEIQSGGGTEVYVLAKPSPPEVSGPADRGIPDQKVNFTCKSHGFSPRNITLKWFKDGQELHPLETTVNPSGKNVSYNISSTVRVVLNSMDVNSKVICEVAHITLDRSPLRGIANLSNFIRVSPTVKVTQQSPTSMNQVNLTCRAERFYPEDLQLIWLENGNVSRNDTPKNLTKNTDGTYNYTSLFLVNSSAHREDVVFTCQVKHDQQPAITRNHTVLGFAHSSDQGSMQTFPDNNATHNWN

mouse SIRPα (mouse) [2] = molecular target: T1, mouse SIRPα (mouse); test: Octet, exosomes on mouse SIRPα
mouse SIRPα (mouse) [3] = molecular target: T1, mouse SIRPα (mouse); test: Octet, exosomes on mouse SIRPα (legend of FIG. 18)

Measured: binding

B1: construct 1922: extracellular domain of murine CD47 (C15S) fused to full length Scaffold X (no flag tag), expressed on exosomes (protein)
chain: QLLFSNVNSIEFTSSNETVVIPCIVRNVEAQSTEEMFVKWKLNKSYIFIYDGNKNSTTTDQNFTSAKISVSDLINGIASLKMDKRDAMVGNYTCEVTELSREGKTVIELKNRTVSWFSPNEKVPTATLVRVVGTELVIPCNVSDYDGPSEQNFDWSFSSLGSSFVELASTWEVGFPAQLYQERLQRGEILLRRTANDAVELHIKNVQPSDQGHYKCSTPSTDATVQGNYEDTVQVKVLADSLHVGPSARPPPSLSLREGEPFELRCTAASASPLHTHLALLWEVHRGPARRSVLALTHEGRFHPGLGYEQRYHSGDVRLDTVGSDAYRLSVSRALSADQGSYRCIVSEWIAEQGNWQEIQEKAVEVATVVIQPSVLRAAVPKNVSVAEGKELDLTCNITTDRADDVRPEVTWSFSRMPDSTLPGSRVLARLDRDSLVHSSPHVALSHVDARSYHLLVRDVSKENSGYYYCHVSLWAPGHNRSWHKVAEAVSSPAGVGVTWLEPDYQVYLNASKVPGFADDPTELACRVVDTKSGEANVRFTVSWYYRMNRRSDNVVTSELLAVMDGDWTLKYGERSKQRAQDGDFIFSKEHTDTFNFRIQRTTEEDRGNYYCVVSAWTKQRNNSWVKSKDVFSKPVNIFWALEDSVLVVKARQPKPFFAAGNTFEMTCKVSSKNIKSPRYSVLIMAEKPVGDLSSPNETKYIISLDQDSVVKLENWTDASRVDGVVLEKVQEDEFRYRMYQTQVSDAGLYRCMVTAWSPVRGSLWREAATSLSNPIEIDFQTSGPIFNASVHSDTPSVIRGDLIKLFCIITVEGAALDPDDMAFDVSWFAVHSFGLDKAPVLLSSLDRKGIVTTSRRDWKSDLSLERVSVLEFLLQVHGSEDQDFGNYYCSVTPWVKSPTGSWQKEAEIHSKPVFITVKMDVLNAFKYPLLIGVGLSTVIGLLSCLIGYCSSHWCCKKEVQETRRERRRLMSMEMD
binds: all assays above

B2: construct 1923: extracellular domain of murine CD47 (C15S) fused to flag-tagged full length Scaffold X, expressed on exosomes (protein, not shown: small tags and cut ends)
chain: QLLFSNVNSIEFTSSNETVVIPCIVRNVEAQSTEEMFVKWKLNKSYIFIYDGNKNSTTTDQNFTSAKISVSDLINGIASLKMDKRDAMVGNYTCEVTELSREGKTVIELKNRTVSWFSPNEKVPTATLVRVVGTELVIPCNVSDYDGPSEQNFDWSFSSLGSSFVELASTWEVGFPAQLYQERLQRGEILLRRTANDAVELHIKNVQPSDQGHYKCSTPSTDATVQGNYEDTVQVKVLADSLHVGPSARPPPSLSLREGEPFELRCTAASASPLHTHLALLWEVHRGPARRSVLALTHEGRFHPGLGYEQRYHSGDVRLDTVGSDAYRLSVSRALSADQGSYRCIVSEWIAEQGNWQEIQEKAVEVATVVIQPSVLRAAVPKNVSVAEGKELDLTCNITTDRADDVRPEVTWSFSRMPDSTLPGSRVLARLDRDSLVHSSPHVALSHVDARSYHLLVRDVSKENSGYYYCHVSLWAPGHNRSWHKVAEAVSSPAGVGVTWLEPDYQVYLNASKVPGFADDPTELACRVVDTKSGEANVRFTVSWYYRMNRRSDNVVTSELLAVMDGDWTLKYGERSKQRAQDGDFIFSKEHTDTFNFRIQRTTEEDRGNYYCVVSAWTKQRNNSWVKSKDVFSKPVNIFWALEDSVLVVKARQPKPFFAAGNTFEMTCKVSSKNIKSPRYSVLIMAEKPVGDLSSPNETKYIISLDQDSVVKLENWTDASRVDGVVLEKVQEDEFRYRMYQTQVSDAGLYRCMVTAWSPVRGSLWREAATSLSNPIEIDFQTSGPIFNASVHSDTPSVIRGDLIKLFCIITVEGAALDPDDMAFDVSWFAVHSFGLDKAPVLLSSLDRKGIVTTSRRDWKSDLSLERVSVLEFLLQVHGSEDQDFGNYYCSVTPWVKSPTGSWQKEAEIHSKPVFITVKMDVLNAFKYPLLIGVGLSTVIGLLSCLIGYCSSHWCCKKEVQETRRERRRLMSMEMD
binds: all assays above
